Source: patent US8846569B2, “Pesticidal bis-organosulfur compounds” (Merial Limited, priority 2009, dated 2014)
Some results were stated once for a whole list of compounds, not compound by compound.

Assays:
Type in all cases: in vivo
Ctenocephalides felis [1] = assay: Ctenocephalides felis contact assay; details: mortality of adult C. felis up to 72 hours post treatment
Rhipicephalus sanguineus = Rhipicephalus sanguineus contact assay; details: mortality of adult R. sanguineus at 24 and 48 hours
Ctenocephalides felis [2] = assay: Ctenocephalides felis ingestion assay; details: mortality of adult C. felis at 72 hours, compound in cow blood

Structure (SMILES)	EC50 (Ctenocephalides felis [1])	EC50 (Rhipicephalus sanguineus)	EC50 (Ctenocephalides felis [2])
N#CC(CCSC(F)(F)F)[S+]([O-])CCC(F)(F)C(F)(F)F (stereo not drawn) [II-16, 2-(3,3,4,4,4-Pentafluoro-butane-1-sulfinyl)-4-trifluoromethylsulfanyl-butyronitrile]	less than 20 ppm	less than 10 ppm	less than 10 ppm
N#CC(CCSC(F)(F)F)S(=O)(=O)CCC(F)(F)C(F)(F)F (stereo not drawn) [II-1, 2-(3,3,4,4,4-Pentafluoro-butane-1-sulfonyl)-4-trifluoromethylsulfanyl-butyronitrile]	less than 20 ppm	less than 10 ppm	less than 10 ppm
